Test results taken from patent publication US12729225B2, “Non-canonical SWI/SNF complex and uses thereof” (Dana-Farber Cancer Institute, Inc., priority 2018, dated 2026).

B1: STK33 (protein, UniProt Q9BYT3 1-514, looked up)
Serine/threonine-protein …: MADSGLDKKSTKCPDCSSASQKDVLCVCSSKTRVPPVLVVEMSQTSSIGSAESLISLERKKEKNINRDITSRKDLPSRTSNVERKASQQQWGRGNFTEGKVPHIRIENGAAIEEIYTFGRILGKGSFGIVIEATDKETETKWAIKKVNKEKAGSSAVKLLEREVNILKSVKHEHIIHLEQVFETPKKMYLVMELCEDGELKEILDRKGHFSENETRWIIQSLASAIAYLHNNDIVHRDLKLENIMVKSSLIDDNNEINLNIKVTDFGLAVKKQSRSEAMLQATCGTPIYMAPEVISAHDYSQQCDIWSIGVVMYMLLRGEPPFLASSEEKLFELIRKGELHFENAVWNSISDCAKSVLKQLMKVDPAHRITAKELLDNQWLTGNKLSSVRPTNVLEMMKEWKNNPESVEENTTEEKNKPSTEEKLKSYQPWGNVPDANYTSDEEEEKQSTAYEKQFPATSKDNFDMCSSSFTSSKLLPAEIKGEMEKTPVTPSQGTATKYPAKSGALSRTKKKL
B2: VAT1 (protein, UniProt Q99536 2-393, looked up)
Synaptic vesicle membrane …: SDEREVAEAATGEDASSPPPKTEAASDPQHPAASEGAAAAAASPPLLRCLVLTGFGGYDKVKLQSRPAAPPAPGPGQLTLRLRACGLNFADLMARQGLYDRLPPLPVTPGMEGAGVVIAVGEGVSDRKAGDRVMVLNRSGMWQEEVTVPSVQTFLIPEAMTFEEAAALLVNYITAYMVLFDFGNLQPGHSVLVHMAAGGVGMAAVQLCRTVENVTVFGTASASKHEALKENGVTHPIDYHTTDYVDEIKKISPKGVDIVMDPLGGSDTAKGYNLLKPMGKVVTYGMANLLTGPKRNLMALARTWWNQFSVTALQLLQANRAVCGFHLGYLDGEVELVSGVVARLLALYNQGHIKPHIDSVWPFEKVADAMKQMQEKKNVGKVLLVPGPEKEN
B3: ##RASAL1 (protein, UniProt O95294 1-804, looked up)
RasGAP-activating-like …: MAKSSSLNVRVVEGRALPAKDVSGSSDPYCLVKVDDEVVARTATVWRSLGPFWGEEYTVHLPLDFHQLAFYVLDEDTVGHDDIIGKISLSREAITADPRGIDSWINLSRVDPDAEVQGEICLSVQMLEDGQGRCLRCHVLQARDLAPRDISGTSDPFARVFWGSQSLETSTIKKTRFPHWDEVLELREMPGAPSPLRVELWDWDMVGKNDFLGMVEFSPKTLQQKPPKGWFRLLPFPRAEEDSGGNLGALRVKVRLIEDRVLPSQCYQPLMELLMESVQGPAEEDTASPLALLEELTLGDCRQDLATKLVKLFLGRGLAGRFLDYLTRREVARTMDPNTLFRSNSLASKSMEQFMKLVGMPYLHEVLKPVISRVFEEKKYMELDPCKMDLGRTRRISFKGALSEEQMRETSLGLLTGYLGPIVDAIVGSVGRCPPAMRLAFKQLHRRVEERFPQAEHQDVKYLAISGFLFLRFFAPAILTPKLFDLRDQHADPQTSRSLLLLAKAVQSIGNLGQQLGQGKELWMAPLHPFLLQCVSRVRDFLDRLVDVDGDEAGVPARALFPPSAIVREGYLLKRKEEPAGLATRFAFKKRYVWLSGETLSFSKSPEWQMCHSIPVSHIRAVERVDEGAFQLPHVMQVVTQDGTGALHTTYLQCKNVNELNQWLSALRKASAPNPNKLAACHPGAFRSARWTCCLQAERSAAGCSRTHSAVTLGDWSDPLDPDAEAQTVYRQLLLGRDQLRLKLLEDSNMDTTLEADTGACPEVLARQRAATARLLEVLADLDRAHEEFQQQERGKAALGPLGP
B4: MTDH (protein, UniProt Q86UE4 1-582, looked up)
Protein LYRIC: MAARSWQDELAQQAEEGSARLREMLSVGLGFLRTELGLDLGLEPKRYPGWVILVGTGALGLLLLFLLGYGWAAACAGARKKRRSPPRKREEAAAVPAAAPDDLALLKNLRSEEQKKKNRKKLSEKPKPNGRTVEVAEGEAVRTPQSVTAKQPPEIDKKNEKSKKNKKKSKSDAKAVQNSSRHDGKEVDEGAWETKISHREKRQQRKRDKVLTDSGSLDSTIPGIENTITVTTEQLTTASFPVGSKKNKGDSHLNVQVSNFKSGKGDSTLQVSSGLNENLTVNGGGWNEKSVKLSSQISAGEEKWNSVSPASAGKRKTEPSAWSQDTGDANTNGKDWGRSWSDRSIFSGIGSTAEPVSQSTTSDYQWDVSRNQPYIDDEWSGLNGLSSADPNSDWNAPAEEWGNWVDEERASLLKSQEPIPDDQKVSDDDKEKGEGALPTGKSKKKKKKKKKQGEDNSTAQDTEELEKEIREDLPVNTSKTRPKQEKAFSLKTISTSDPAEVLVKNSQPIKTLPPATSTEPSVILSKSDSDKSSSQVPPILQETDKSKSNTKQNSVPPSQTKSETSWESPKQIKKKKKARRET
B5: KRT18 (protein, UniProt P05783 2-430, looked up)
Keratin, type I cytoskeletal …: SFTTRSTFSTNYRSLGSVQAPSYGARPVSSAASVYAGAGGSGSRISVSRSTSFRGGMGSGGLATGIAGGLAGMGGIQNEKETMQSLNDRLASYLDRVRSLETENRRLESKIREHLEKKGPQVRDWSHYFKIIEDLRAQIFANTVDNARIVLQIDNARLAADDFRVKYETELAMRQSVENDIHGLRKVIDDTNITRLQLETEIEALKEELLFMKKNHEEEVKGLQAQIASSGLTVEVDAPKSQDLAKIMADIRAQYDELARKNREELDKYWSQQIEESTTVVTTQSAEVGAAETTLTELRRTVQSLEIDLDSMRNLKASLENSLREVEARYALQMEQLNGILLHLESELAQTRAEGQRQAQEYEALLNIKVKLEAEIATYRRLLEDGEDFNLGDALDSSNSMQTIQKTTTRRIVDGKVVSETNDTKVLRH
B6: TDRKH (protein, UniProt Q9Y2W6 1-561, looked up)
Tudor and KH …: MSTERTSWTSLSTIQKIALGLGIPASATVAYILYRRYRESREERLTFVGEDDIEIEMRVPQEAVKLIIGRQGANIKQLRKQTGARIDVDTEDVGDERVLLISGFPVQVCKAKAAIHQILTENTPVSEQLSVPQRSVGRIIGRGGETIRSICKASGAKITCDKESEGTLLLSRLIKISGTQKEVAAAKHLILEKVSEDEELRKRIAHSAETRVPRKQPISVRREDMTEPGGAGEPALWKNTSSSMEPTAPLVTPPPKGGGDMAVVVSKEGSWEKPSDDSFQKSEAQAIPEMPMFEIPSPDFSFHADEYLEVYVSASEHPNHFWIQIVGSRSLQLDKLVNEMTQHYENSVPEDLTVHVGDIVAAPLPTNGSWYRARVLGTLENGNLDLYFVDFGDNGDCPLKDLRALRSDFLSLPFQAIECSLARIAPSGDQWEEEALDEFDRLTHCADWKPLVAKISSYVQTGISTWPKIYLYDTSNGKKLDIGLELVHKGYAIELPEDIEENRAVPDMLKDMATETDASLSTLLTETKKSSGEITHTLSCLSLSEAASMSGDDNLEDDYLL
B7: TRIM37 (protein, UniProt O94972 1-964, looked up)
E3 ubiquitin-protein ligase …: MDEQSVESIAEVFRCFICMEKLRDARLCPHCSKLCCFSCIRRWLTEQRAQCPHCRAPLQLRELVNCRWAEEVTQQLDTLQLCSLTKHEENEKDKCENHHEKLSVFCWTCKKCICHQCALWGGMHGGHTFKPLAEIYEQHVTKVNEEVAKLRRRLMELISLVQEVERNVEAVRNAKDERVREIRNAVEMMIARLDTQLKNKLITLMGQKTSLTQETELLESLLQEVEHQLRSCSKSELISKSSEILMMFQQVHRKPMASFVTTPVPPDFTSELVPSYDSATFVLENFSTLRQRADPVYSPPLQVSGLCWRLKVYPDGNGVVRGYYLSVFLELSAGLPETSKYEYRVEMVHQSCNDPTKNIIREFASDFEVGECWGYNRFFRLDLLANEGYLNPQNDTVILRFQVRSPTFFQKSRDQHWYITQLEAAQTSYIQQINNLKERLTIELSRTQKSRDLSPPDNHLSPQNDDALETRAKKSACSDMLLEGGPTTASVREAKEDEEDEEKIQNEDYHHELSDGDLDLDLVYEDEVNQLDGSSSSASSTATSNTEENDIDEETMSGENDVEYNNMELEEGELMEDAAAAGPAGSSHGYVGSSSRISRRTHLCSAATSSLLDIDPLILIHLLDLKDRSSIENLWGLQPRPPASLLQPTASYSRKDKDQRKQQAMWRVPSDLKMLKRLKTQMAEVRCMKTDVKNTLSEIKSSSAASGDMQTSLFSADQAALAACGTENSGRLQDLGMELLAKSSVANCYIRNSTNKKSNSPKPARSSVAGSLSLRRAVDPGENSRSKGDCQTLSEGSPGSSQSGSRHSSPRALIHGSIGDILPKTEDRQCKALDSDAVVVAVFSGLPAVEKRRKMVTLGANAKGGHLEGLQMTDLENNSETGELQPVLPEGASAAPEEGMSSDSDIECDTENEEQEEHTSVGGFHDSFMVMTQPPDEDTHSSFPDGEQIGPEDLSFNTDENSGR
B8: EIF4G2 (protein, UniProt P78344 1-907, looked up)
Eukaryotic translation …: MESAIAEGGASRFSASSGGGGSRGAPQHYPKTAGNSEFLGKTPGQNAQKWIPARSTRRDDNSAANNSANEKERHDAIFRKVRGILNKLTPEKFDKLCLELLNVGVESKLILKGVILLIVDKALEEPKYSSLYAQLCLRLAEDAPNFDGPAAEGQPGQKQSTTFRRLLISKLQDEFENRTRNVDVYDKRENPLLPEEEEQRAIAKIKMLGNIKFIGELGKLDLIHESILHKCIKTLLEKKKRVQLKDMGEDLECLCQIMRTVGPRLDHERAKSLMDQYFARMCSLMLSKELPARIRFLLQDTVELREHHWVPRKAFLDNGPKTINQIRQDAVKDLGVFIPAPMAQGMRSDFFLEGPFMPPRMKMDRDPLGGLADMFGQMPGSGIGTGPGVIQDRFSPTMGRHRSNQLFNGHGGHIMPPTQSQFGEMGGKFMKSQGLSQLYHNQSQGLLSQLQGQSKDMPPRFSKKGQLNADEISLRPAQSFLMNKNQVPKLQPQITMIPPSAQPPRTQTPPLGQTPQLGLKTNPPLIQEKPAKTSKKPPPSKEELLKLTETVVTEYLNSGNANEAVNGVREMRAPKHFLPEMLSKVIILSLDRSDEDKEKASSLISLLKQEGIATSDNFMQAFLNVLDQCPKLEVDIPLVKSYLAQFAARAIISELVSISELAQPLESGTHFPLFLLCLQQLAKLQDREWLTELFQQSKVNMQKMLPEIDQNKDRMLEILEGKGLSFLFPLLKLEKELLKQIKLDPSPQTIYKWIKDNISPKLHVDKGFVNILMTSFLQYISSEVNPPSDETDSSSAPSKEQLEQEKQLLLSFKPVMQKFLHDHVDLQVSALYALQVHCYNSNFPKGMLLRFFVHFYDMEIIEEEAFLAWKEDITQEFPGKGKALFQVNQWLTWLETAEEEESEEEAD
B9: FCF1 (protein, UniProt Q9Y324 1-198, looked up)
rRNA-processing protein FCF1 …: MGKQKKTRKYATMKRMLSLRDQRLKEKDRLKPKKKEKKDPSALKEREVPQHPSCLFFQYNTQLGPPYHILVDTNFINFSIKAKLDLVQSMMDCLYAKCIPCITDCVMAEIEKLGQKYRVALRIAKDPRFERLPCTHKGTYADDCLVQRVTQHKCYIVATVDRDLKRRIRKIPGVPIMYISNHRYNIERMPDDYGAPRF

System: mSWI/SNF complexes
Assay: mSWI/SNF complex purification with HA-tagged baits and mass spectrometry (peptide counts)
Set-up: species or system human
Conditions: 293_HA-BRD7 bait purification, mass spectrometry; for Total: total peptide count per identified protein; for Unique: unique peptide count per identified protein

Row | Molecule | Total | Unique
1 | B1 | 1 | 1
2 | B2 | 1 | 1
3 | B3 | 1 | 1
4 | B4 | 1 | 1
5 | B5 | 1 | 1
6 | B6 | 1 | 1
7 | B7 | 1 | 1
8 | B8 | 1 | 1
9 | B9 | 1 | 1
